# Measurements reported in PubChem BioAssay AID330 (DTP/NCI, 2004).
# The list shows only some results of the screen, not a fair sample: it is rich in T/C values a quarter to a half above the control, in often repeated tests (any T/C) and in doses without a T/C. Further doses and runs are listed elsewhere. T/C: endpoint of the treated group in % of that of the vehicle group. Some entries give survivors of the animals treated and no T/C: the source files T/C as zero there, which appears to mark a toxic dose or a test without result, not a measured value. Some survivor counts are full or nearly so, which does not show that the dose was tolerated: survival well below the control is almost never listed, so the zero probably covers shortened survival too. Survivors were counted at the toxicity check, usually on the fifth day, unless a day is given; later deaths do not show. Schedule codes are those of the source, taken here to give the interval after Q, in days (D) or hours (H), and the number of doses after X. Some doses were run more than once; the values are given in rising order. For survival time, this PubChem deposit counts one and a half times the control or more as active, and values a quarter to a half above the control carry no call in these data; other NCI protocols may use other cut-offs. Marks such as (2×) stand for listed records that agree. Some T/C values are followed by the survivors on the day toxicity was checked, most often the fifth; without a count, all were alive then.
# Test system: P388 leukemia ip, CD2F1 mice, survival T/C
# Assay: NCI In Vivo Anticancer Drug Screen. Data for tumor model P388 Leukemia (intraperitoneal) in CD2F1 (CDF1) mice
# Details: T/C endpoint: median survival time, higher T/C = longer survival
# [1] = dose: 25.0 mg/kg/injection, schedule: Q01DX009 (ip), vehicle: Klucel (hydroxypropylcellulose) (HPC)
# [2] = dose: 50.0 mg/kg/injection, schedule: Q01DX009 (ip), vehicle: Klucel (hydroxypropylcellulose) (HPC)
# [3] = dose: 100.0 mg/kg/injection, schedule: Q01DX009 (ip), vehicle: Klucel (hydroxypropylcellulose) (HPC)
# [4] = dose: 200.0 mg/kg/injection, schedule: Q01DX009 (ip), vehicle: Klucel (hydroxypropylcellulose) (HPC)
# [5] = dose: 100.0 mg/kg/injection, schedule: Q01DX009 (ip), vehicle: saline with Tween-80
# [6] = dose: 200.0 mg/kg/injection, schedule: Q01DX009 (ip), vehicle: saline with Tween-80
# [7] = dose: 200.0 mg/kg/injection, schedule: Q01DX009 (ip), vehicle: saline + Tween-80 + alcohol
# [8] = dose: 30.0 mg/kg/injection, schedule: Q01DX009 (ip), vehicle: saline with Tween-80
# [9] = dose: 60.0 mg/kg/injection, schedule: Q01DX009 (ip), vehicle: saline with Tween-80
# [10] = dose: 25.0 mg/kg/injection, schedule: Q01DX005 (ip), vehicle: Klucel (hydroxypropylcellulose) (HPC)
# [11] = dose: 50.0 mg/kg/injection, schedule: Q01DX005 (ip), vehicle: Klucel (hydroxypropylcellulose) (HPC)
# [12] = dose: 100.0 mg/kg/injection, schedule: Q01DX005 (ip), vehicle: Klucel (hydroxypropylcellulose) (HPC)
# [13] = dose: 200.0 mg/kg/injection, schedule: Q01DX005 (ip), vehicle: Klucel (hydroxypropylcellulose) (HPC)
# [14] = dose: 400.0 mg/kg/injection, schedule: Q04DX003 (ip), vehicle: saline with Tween-80
# [15] = dose: 200.0 mg/kg/injection, schedule: Q01DX009 (ip), vehicle: saline
smiles,measurement,setting,value
C=CCNC(=O)c1cc(N2CC2)c([N+](=O)[O-])cc1[N+](=O)[O-],survivor count,"dose: 12.5 mg/kg/injection, schedule: Q01DX009 (ip), vehicle: Klucel (hydroxypropylcellulose) (HPC)",6 of 6
same,T/C,[1],"97, 100, 101 % of control"
same,survivor count,[1],6 of 6
same,T/C,[2],"98, 101 [5 of 6 alive], 151 % of control"
same,survivor count,[2],6 of 6
same,T/C,[3],"99 [4 of 6 alive], 115, 131 % of control"
same,survivor count,[3],6 of 6
same,survivor count,[4],0 of 6
C[N+]1=C(/C=C/Nc2ccc3ccc4cccc5ccc2c3c45)C(C)(C)c2ccccc21,survivor count,[5],5 of 6
same,survivor count,[6],0 of 6
SCc1ccccc1CS,T/C,[6],131 % of control
same,survivor count,[6],3 of 6
same,survivor count,"dose: 400.0 mg/kg/injection, schedule: Q01DX009 (ip), vehicle: saline with Tween-80",1 of 6 and 2 of 6
CN1CCN(C)C1=Nc1ccccc1/C=C/C=C1C(=O)N(C)C(=O)N(C)C1=O,T/C,"dose: 100.0 mg/kg/injection, schedule: Q04DX002 (ip), vehicle: saline with Tween-80",125 % of control
same,survivor count,"dose: 200.0 mg/kg/injection, schedule: Q04DX002 (ip), vehicle: saline with Tween-80",0 of 6
same,survivor count,"dose: 400.0 mg/kg/injection, schedule: Q04DX002 (ip), vehicle: saline with Tween-80",0 of 6
CC(=O)Oc1ccccc1O,T/C,"dose: 100.0 mg/kg/injection, schedule: Q01DX009 (ip), vehicle: saline + Tween-80 + alcohol",129 % of control
same,T/C,[7],125 and 135 % of control [5 of 6 alive]
same,survivor count,[7],1 of 6
same,survivor count,"dose: 400.0 mg/kg/injection, schedule: Q01DX009 (ip), vehicle: saline + Tween-80 + alcohol",0 of 6
NNC(=O)c1ccccc1O,survivor count,[6],5 of 6
CC(C)c1oc(=O)cc2c1[C@@H](O)[C@H]1OC(=O)[C@@]3(C)[C@@H](O)[C@H]4O[C@H]4[C@@]2(C)[C@@H]13,survivor count,"dose: 3.75 mg/kg/injection, schedule: Q01DX001 (ip), vehicle: saline with Tween-80",0 of 6
same,T/C,"dose: 7.5 mg/kg/injection, schedule: Q01DX001 (ip), vehicle: saline with Tween-80","102, 107, 112, 120 % of control"
same,survivor count,"dose: 15.0 mg/kg/injection, schedule: Q01DX001 (ip), vehicle: saline with Tween-80",1 of 6
same,T/C,"dose: 20.0 mg/kg/injection, schedule: Q01DX009 (ip), vehicle: saline with Tween-80",125 % of control
same,survivor count,"dose: 30.0 mg/kg/injection, schedule: Q01DX001 (ip), vehicle: saline with Tween-80",0 of 6
same,T/C,[8],129 % of control
same,survivor count,[8],3 of 6
same,T/C,"dose: 40.0 mg/kg/injection, schedule: Q01DX009 (ip), vehicle: saline with Tween-80",145 % of control
same,T/C,[9],129 % of control
same,survivor count,[9],0 of 6
same,survivor count,"dose: 120.0 mg/kg/injection, schedule: Q01DX009 (ip), vehicle: saline with Tween-80",0 of 3
COc1cc[c]([Sn]([O][Sn]([Cl])([c]2ccc(OC)cc2)[c]2ccc(OC)cc2)[c]2ccc(OC)cc2)cc1,T/C,"dose: 12.5 mg/kg/injection, schedule: Q01DX005 (ip), vehicle: Klucel (hydroxypropylcellulose) (HPC)",125 % of control
same,T/C,[10],131 % of control
same,survivor count,[11],0 of 6
same,survivor count,[12],0 of 6
same,survivor count,[13],0 of 6
CC1CCC(C(C)C)C(OC(=O)c2cccc[n+]2C)C1 (stereo unspecified),survivor count,"dose: 60.0 mg/kg/injection, schedule: Q01DX005 (ip), vehicle: saline",0 of 6
same,survivor count,"dose: 120.0 mg/kg/injection, schedule: Q01DX005 (ip), vehicle: saline",0 of 6
same,survivor count,"dose: 240.0 mg/kg/injection, schedule: Q01DX005 (ip), vehicle: saline",0 of 6
CN(C)CCNc1cccc2c1C(=O)c1cccc(NCCN(C)C)c1C2=O,survivor count,"dose: 30.0 mg/kg/injection, schedule: Q01DX009 (ip), vehicle: saline",6 of 6
same,survivor count,"dose: 60.0 mg/kg/injection, schedule: Q01DX009 (ip), vehicle: saline",1 of 6
O=C(NCCF)Oc1cc(Cl)c(Cl)cc1Cl,T/C,[10],128 % of control (2×)
same,T/C,[11],127 % of control
same,survivor count,[11],0 of 6 and 5 of 6
same,survivor count,[12],0 of 6
same,survivor count,[13],0 of 6
Nc1nc(SCc2cccc(Br)c2)c2ncn(C3OC(CO)C(O)C3O)c2n1 (stereo unspecified),survivor count,"dose: 150.0 mg/kg/injection, schedule: Q01DX009 (ip), vehicle: saline with Tween-80",6 of 6
c1ccc(CN2CCC(N3CNc4ccccc43)CC2)cc1,survivor count,"dose: 100.0 mg/kg/injection, schedule: Q04DX003 (ip), vehicle: saline with Tween-80",1 of 6
same,survivor count,"dose: 200.0 mg/kg/injection, schedule: Q04DX003 (ip), vehicle: saline with Tween-80",0 of 6
same,survivor count,[14],0 of 6
CCCCNC1=CC(=O)c2ccccc2C1=O,survivor count,[14],5 of 6
CCCN(CCC)CCCOC(=O)c1ccc2oc3ccc(C(=O)OCCCN(CCC)CCC)cc3c2c1,survivor count,[15],2 of 6
CC(C)(CCl)C(=O)O,survivor count,"dose: 100.0 mg/kg/injection, schedule: Q01DX009 (ip), vehicle: saline",2 of 6
same,survivor count,[15],3 of 6
CC1(C)N=C(N/N=C/c2ccccc2)SP1(=O)NNc1ncccn1 (stereo unspecified),survivor count,"dose: 240.0 mg/kg/injection, schedule: Q01DX005 (ip), vehicle: Klucel (hydroxypropylcellulose) (HPC)",0 of 6
CC1OC(CC(=O)O)Cc2c1c(O)c1c(O)cc(-c3cc(=O)c4c(=O)c5c(c(=O)c=4c3=O)CC(CC(=O)O)OC5C)c(O)c1c2O (stereo unspecified),survivor count,"dose: 50.0 mg/kg/injection, schedule: Q01DX009 (ip), vehicle: saline with Tween-80",6 of 6
same,survivor count,[5],1 of 6
same,survivor count,[6],0 of 6
CCCCN(C)c1ncnc2[nH]ncc12,survivor count,"dose: 200.0 mg/kg/injection, schedule: Q04DX003 (ip), vehicle: saline",4 of 6
same,survivor count,"dose: 400.0 mg/kg/injection, schedule: Q04DX003 (ip), vehicle: saline",0 of 6
Oc1c(C(Nc2cccc3cccnc23)c2ccccc2)ccc2cccnc12 (stereo unspecified),T/C,[4],126 [5 of 6 alive] and 130 % of control
same,T/C,"dose: 400.0 mg/kg/injection, schedule: Q01DX009 (ip), vehicle: Klucel (hydroxypropylcellulose) (HPC)",135 % of control
CN(C)CCNCCN,survivor count,"dose: 200.0 mg/kg/injection, schedule: Q01DX005 (ip), vehicle: saline",6 of 6
O=NN(CCCl)C(=O)NC1[C@H](O)CCC[C@@H]1O (stereo partly specified),T/C,"dose: 1.25 mg/kg/injection, schedule: Q01DX005 (ip), vehicle: saline",142 % of control
same,survivor count,"dose: 12.5 mg/kg/injection, schedule: Q01DX005 (ip), vehicle: saline",6 of 6
same,survivor count,"dose: 20.0 mg/kg/injection, schedule: Q01DX005 (ip), vehicle: saline",6 of 6
same,survivor count,"dose: 25.0 mg/kg/injection, schedule: Q01DX005 (ip), vehicle: saline",5 of 6
same,survivor count,"dose: 40.0 mg/kg/injection, schedule: Q01DX005 (ip), vehicle: saline",5 of 6
same,survivor count,"dose: 50.0 mg/kg/injection, schedule: Q01DX005 (ip), vehicle: saline",2 of 6
same,survivor count,"dose: 100.0 mg/kg/injection, schedule: Q01DX005 (ip), vehicle: saline",0 of 6
